Test [1] has as its target K63-linked diubiquitin (Boston Biochem) (human) (UniProt P0CG48). The experiment in a line: western blot, 1 ug/mL IgG, LI-COR Odyssey. On the technique in general: In western blotting, separated proteins are transferred to a membrane and probed.
For test [2] the target is unchanged. In words: condition: 1 µg/mL IgG; 1 µg K63-linked diubiquitin per lane; western blot.
In test [3] the target is monoubiquitin (Boston Biochem) (human) (UniProt P0CG48). The experiment in a line: phage specificity ELISA, 1 ug/mL coated antigen, anti-M13-HRP. In general terms: ELISA stands for enzyme-linked immunosorbent assay.
Test [4] deals with K63-linked diubiquitin (Boston Biochem) (human) (UniProt P0CG48). Described as above.
Test [5] addresses K48-linked diubiquitin (Boston Biochem) (human) (UniProt P0CG48). The test is described as above.
Test [6] addresses K11-linked diubiquitin (Genentech) (human) (UniProt P0CG48). The test is described as above.
Test [7] concerns the target K63-linked diubiquitin (Boston Biochem) (human) (UniProt P0CG48). The experiment in a line: phage spot ELISA, antigen coated at 1 µg/mL.
The target is the same in test [8]. The experiment in a line: phage specificity ELISA, antigen coated at 1 µg/mL.

Protein sequences, listed by entry. Tags and fused reporters are not part of them. Lines headed by an entry give the natural chain unless they say otherwise; changes in a name come on top.
UniProt P0CG48: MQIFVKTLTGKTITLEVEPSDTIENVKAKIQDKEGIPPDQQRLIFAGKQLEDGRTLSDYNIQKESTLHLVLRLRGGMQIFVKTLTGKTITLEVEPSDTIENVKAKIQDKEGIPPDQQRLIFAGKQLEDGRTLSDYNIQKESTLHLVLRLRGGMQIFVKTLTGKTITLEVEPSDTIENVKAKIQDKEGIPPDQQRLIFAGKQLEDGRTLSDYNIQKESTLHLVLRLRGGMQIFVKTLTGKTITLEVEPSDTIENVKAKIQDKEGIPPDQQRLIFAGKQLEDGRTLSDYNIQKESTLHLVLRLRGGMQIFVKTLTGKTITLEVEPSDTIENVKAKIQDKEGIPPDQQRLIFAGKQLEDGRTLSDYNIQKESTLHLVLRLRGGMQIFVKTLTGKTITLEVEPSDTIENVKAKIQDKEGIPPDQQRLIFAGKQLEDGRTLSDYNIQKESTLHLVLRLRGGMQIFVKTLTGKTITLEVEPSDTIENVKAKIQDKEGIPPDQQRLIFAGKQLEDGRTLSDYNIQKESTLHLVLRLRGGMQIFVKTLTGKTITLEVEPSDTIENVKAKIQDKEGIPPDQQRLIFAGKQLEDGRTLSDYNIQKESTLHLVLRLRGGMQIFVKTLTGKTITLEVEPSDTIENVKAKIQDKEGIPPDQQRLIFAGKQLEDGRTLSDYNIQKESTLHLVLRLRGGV

Results are given in words; binding and its absence hold for the method and conditions named.

B1: 1F11 IgG (antibody, V domains shown)
VH: EVQLVESGGGLVQPGGSLRLSCAASGFTFSNTYISWVRQAPGKGLEWVASITPSSGSTDYADSVKGRFTISADTSKNTAYLQMNSLRAEDTAVYYCARTWLLRWVMDYWGQGTLVTVSS
VL: DIQMTQSPSSLSASVGDRVTITCRASQDVSTAVAWYQQKPGKAPKLLIYSAKFLYSGVPSRFSGSGSGTDFTLTISSLQPEDFATYYCQQSYTTPPTFGQGTKVEIK
Turning to B1, the binding result in test [1] is given as “no binding (tested: 1000 ng per lane)”; in test [2], “no binding”.

B2: 1F11, Fab displayed on phage (Fab, V domains shown)
VH: B1 VH
VL: B1 VL
Take B2: the binding entry is listed as “no binding (tested: phage OD268 1)” in test [3]; “no binding (tested: phage OD268 1)” in test [4]; “no binding (tested: phage OD268 1)” in test [5]; “no binding (tested: phage OD268 1)” in test [6]; “no binding (tested: OD450 of less than 0.1)” in test [7]; “no binding (tested: OD450<0.16 at a phage OD268=1.0)” in test [8].

These data come from patent US20130058955A1.
